Assay results: PubChem BioAssay AID1259415 (National Center for Advancing Translational Sciences (NCATS), 2018)
Hit rate of the full screen: of about 410,000 compounds, about 18,000 (4.4%) were called active. This list was built around the results that the source calls inconclusive (neither active nor inactive); the mix of calls is not that of the screen. No stated cut-off is given here; in the data, active means activity change below about -60%; inconclusive means no clear call, values can overlap the other calls; inactive means above about -39%.

Assay: qHTS Assay for inhibitors of the human cytomegalovirus (HCMV)
Conditions: HFF cells, HCMV-luciferase reporter, 72 h; at 57.5 µM; hits give low values
Outline: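 After 16 h attachment at 37C, HFF cells received test compound and HCMV-luciferase (1 PFU/cell); reporter luminescence read 72 h later, data normalized against buffer-only and known inhibitor Salinomycin.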
On the % scale 0 is the no-effect control and ±100 the full control effect.

| SMILES | activity change, negative = inhibition |
| --- | --- |
| O=C(OCCC12CC3CC(CC(C3)C1)C2)c1ccc(NCc2cc(O)ccc2O)cc1 | active: -77.1% |
| CCOc1ccc(NS(=O)(=O)c2ccc3c(c2)N(C(C)=O)CCO3)cc1 | inactive: -33.2% |
| COc1ccc(S(=O)(=O)N(C(=O)c2ccco2)c2cc3sc(=O)oc3c3ccccc23)cc1 | inconclusive: -41.8% |
| COCC1CCCN(C(=O)c2cc(COc3ccc(C(C)=O)cc3)on2)C1 (configuration not stated) | inactive: 65.4% |
| Cc1ccccc1C1CC(c2ccc(Br)cc2)Nc2nc(N)nn21 (configuration not stated) | inconclusive: -48.8% |
| COc1ccc(CN(C)c2ncnc3sccc23)c(OC)c1OC | inconclusive: -50.5% |
| CCN(CC)C(=O)c1nc[nH]c1C(=O)N1CCN(c2ccccc2)CC1 | inconclusive: -45.3% |
| COc1ccc(Cc2c(C)nn(-c3nc(C)c(C(=O)Nc4ccc(C)cc4C)s3)c2C)cc1 | inactive: 8.66% |
| Cc1nn(C)cc1S(=O)(=O)Nc1ccc2c(c1)OCCO2 | inconclusive: -52% |
| COc1ccc(NC(=O)c2oc3ccc(S(=O)(=O)N4CCC5(CC4)OCCO5)cc3c2C)cc1Cl | inconclusive: -56.8% |
| O=C(Nc1ccc2c(c1)OCCO2)c1ccc(Cl)c(Cl)c1 | inactive: 23.2% |
| CSc1nnc(-c2ccc(O)cc2)n1C | inactive: 25.6% |
| CS(=O)(=O)Oc1ccccc1/C=C1/N=C(c2ccc(F)cc2)OC1=O | inconclusive: -41.5% |
| CCCc1c(C(=O)N/N=C(\C)c2ccc(O)cc2)nnn1-c1nonc1N | inconclusive: -47.9% |
| Cc1cc(NC(=O)c2ccc(C)s2)n(-c2nc3ccccc3[nH]2)n1 | active: -74.3% |
| CCNC(=O)CN(c1ccc(Oc2ccccc2)cc1)S(=O)(=O)c1ccccc1 | inactive: -25.6% |
| Cc1cc(C)c(C2=NOC3c4ccccc4OCC23)c(C)c1 (configuration not stated) | inconclusive: -55.6% |
| Cc1occc1C(=O)Nc1cccc2ccccc12 | inactive: 170% |
| CCCc1c(Cc2cccc(F)c2)ncn1CCc1ccccc1OC | active: -61.1% |

Compounds from the list above with a thiophene ring, fused or not:

| SMILES | activity change, negative = inhibition |
| --- | --- |
| COc1ccc(CN(C)c2ncnc3sccc23)c(OC)c1OC | inconclusive: -50.5% |
| Cc1cc(NC(=O)c2ccc(C)s2)n(-c2nc3ccccc3[nH]2)n1 | active: -74.3% |

Additional entries follow:

| SMILES | activity change, negative = inhibition |
| --- | --- |
| COc1cc2[nH]c(=S)n(C3CCCC3)c(=O)c2cc1OC | inconclusive: -46.4% |
| Cc1ccc(C)c(N2CCN(S(=O)(=O)c3csc(C(N)=O)c3)CC2)c1 | inconclusive: -52% |
| COc1ccccc1CNC(=O)c1cc2ccc3ccc(C)[nH]c3c2n1 | inconclusive: -60% |
| CC1CCN(S(=O)(=O)c2cc(Br)cc(C(=O)NC3=NCCS3)c2)CC1 | inconclusive: -43.3% |
| O=C(CSCc1ccc(F)cc1)Nc1ccccc1 | inconclusive: -42.7% |
| CCN1CCc2c(sc(-n3cccc3)c2C(C)NC(=O)Nc2ccccc2C)C1 (configuration not stated) | active: -66.9% |
| CC(C)c1ccc(/C=C2\CC/C(=C\C=N\N(C)C)C2=O)cc1 | inactive: 32.5% |
| CC(C)C[C@H](NC(=O)/C=C/[C@H]1O[C@@H](n2ccc(=O)[nH]c2=O)[C@H](O)[C@@H]1O)C(=O)O | inactive: -4.67% |
| CCC1CCCCN1c1nc(-c2ccncc2)nc2ccccc12 (configuration not stated) | inconclusive: -57% |
| COc1ccc(C(NC(=O)c2cccnc2)c2cc(Cl)c3cccnc3c2O)cc1OC (configuration not stated) | active: -97.2% |
| Nc1c(N(Cc2ccccc2)C(=O)COc2ccc([N+](=O)[O-])cc2)c(=O)[nH]c(=O)n1Cc1ccccc1 | active: -97.4% |
| Cc1cc(NC(=O)CCl)nn1C | inconclusive: -57.4% |
| Cn1c(=O)c2cc(NC(=O)Nc3cccnc3)ccc2n1-c1ccc(C(C)(C)C)cc1 | inconclusive: -49.1% |
| O=C(CCn1c(=O)c2cccn2c2cccnc21)NCCCN1CCN(c2ccc(F)cc2)CC1 | inconclusive: -44.7% |
| COc1ccc(Sc2nnc(-c3ccccc3)cc2C#N)cc1 | inactive: -10.1% |
| Cc1ccc(OCCC(=O)N2CCN(c3ccc(O)cc3)CC2)cc1 | inconclusive: -47% |
| Cc1ccc(C)c(N2CC(C(=O)Nc3nccs3)CC2=O)c1 (configuration not stated) | inconclusive: -55.7% |
| Clc1ccc(CNC2CCCC2)c(Cl)c1 | inconclusive: -44.7% |
| CCOC(=O)Cc1ccc(NC(=O)c2ccc(C(C)(C)C)cc2)cc1 | active: -88% |

| SMILES | activity change, negative = inhibition |
| --- | --- |
| Cc1ccc(C2=NC3(CCCC3)NC2=S)cc1 | inactive: 10.2% |
| COc1cc2c(cc1OC)C(COc1ccccc1OC)N(C(=O)c1ccccc1OC)CC2 (configuration not stated) | active: -106% |
| Cc1sc2ncn(CCn3cnc4sc(C)c(C)c4c3=O)c(=O)c2c1C | inconclusive: -49.2% |
| Cc1cccc(C(=O)Nc2cccc(OCc3cc(=O)n4ccccc4n3)c2)c1 | inactive: -39.5% |
| CCOc1ccc(Nc2ccc3nonc3c2[N+](=O)[O-])cc1 | inconclusive: -46% |
| COc1ccc(CCn2nnnc2C(c2ccccc2)N2CCN(C)CC2)cc1OC (configuration not stated) | inconclusive: -52.7% |
| Cc1ccc(OCc2nnc(-c3ccccc3)o2)cc1 | inactive: 57.7% |
| O=C(CCS(=O)(=O)c1ccc(Br)cc1)N1CCN(c2ccc(Cl)cc2)CC1 | active: -78.7% |
| Cc1ccc2occ(CC(=O)N3CCN(c4cccc(Cl)c4)CC3)c2c1 | active: -70.8% |
| CCOC(=O)c1ccccc1NC(=O)c1nn(C)c2c1COc1ccccc1-2 | inconclusive: -47.8% |
| O=C(N/N=C/C=C\c1ccccc1[N+](=O)[O-])c1cc(-c2ccc3ccccc3c2)n[nH]1 | inconclusive: -51.6% |
| CCOC(=O)c1c(Cc2cccc(Cl)c2)c[nH]c1C | active: -62.3% |
| Cc1ccc(-c2nc(CS(=O)CC(=O)NCCCN3CCN(Cc4ccccc4)CC3)c(C)o2)cc1 (configuration not stated) | active: -75.5% |
| O=C(c1cn(-c2ccccc2)nc1-c1ccc(Cl)cc1)N1CCOCC1 | inconclusive: -56.6% |
| COc1ccc(CCNCC(O)COc2cccc(Br)c2)cc1 (configuration not stated) | inactive: -32.5% |
| CC(=O)Nc1cccc(OCc2ccc(F)cc2)c1 | inconclusive: -42.7% |
| COc1ccccc1CC(=O)O/N=C(\N)Cc1cccc2ccccc12 | inactive: -31.1% |
| Cc1cccc(C(O)c2ncc(-c3ccc(Cl)cc3)[nH]2)c1C (configuration not stated) | inactive: -21.8% |
| Cc1cc(C)c(Cn2c3ccccc3c3cnn(CC(=O)NCC(C)c4ccccc4)c(=O)c32)c(C)c1 (configuration not stated) | inactive: -2% |
